No constants are given. Whether binding was seen depends on the method and setting. Binding seen in cells or lysates may run through a third protein. Some entries that bind do so weakly or less than the wild type.
Target: NS5A of HCV Jc1 in HCV replicating cells (hepatitis C virus, Jc1) (UniProt Q99IB8)
Assay: co-IP; Huh7.5 cells electroporated with 10 ug of Jc1 RNA, lysates at 4 days; immunoprecipitated with rabbit anti-NS5A antibody or control IgG, blot with anti-ANKRD1 antibody

By UniProt entry, the sequences of proteins in these tests, tags left out. Residues count along the entry.
UniProt Q99IB8, residues 1977-2442: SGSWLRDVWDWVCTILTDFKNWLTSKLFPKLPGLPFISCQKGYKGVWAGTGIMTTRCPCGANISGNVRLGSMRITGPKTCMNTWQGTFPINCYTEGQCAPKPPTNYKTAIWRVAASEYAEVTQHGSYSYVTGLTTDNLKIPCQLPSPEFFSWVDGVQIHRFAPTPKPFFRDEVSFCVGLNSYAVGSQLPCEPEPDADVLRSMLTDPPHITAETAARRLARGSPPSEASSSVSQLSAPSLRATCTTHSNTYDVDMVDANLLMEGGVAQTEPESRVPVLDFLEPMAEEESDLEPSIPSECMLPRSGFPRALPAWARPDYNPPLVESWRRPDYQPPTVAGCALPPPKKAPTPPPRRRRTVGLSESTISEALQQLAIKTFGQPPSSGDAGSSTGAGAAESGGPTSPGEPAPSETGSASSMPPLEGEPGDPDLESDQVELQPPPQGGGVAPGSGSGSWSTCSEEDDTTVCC
UniProt Q15327: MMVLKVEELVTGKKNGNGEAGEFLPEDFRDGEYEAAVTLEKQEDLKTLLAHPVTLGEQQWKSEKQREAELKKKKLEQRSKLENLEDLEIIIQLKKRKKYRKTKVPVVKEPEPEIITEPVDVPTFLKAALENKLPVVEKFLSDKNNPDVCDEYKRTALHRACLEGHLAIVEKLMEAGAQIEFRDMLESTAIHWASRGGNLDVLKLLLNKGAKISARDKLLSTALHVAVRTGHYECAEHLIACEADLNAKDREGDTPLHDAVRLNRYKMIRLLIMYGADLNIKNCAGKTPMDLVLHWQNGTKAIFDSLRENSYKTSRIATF

Substance: endogenous ANKRD1 (from UniProt Q15327 1-319)
- binding: binds

— paper PMC4748412
